Data on seven compounds can be found in the supplement of paper PMC4635364.

Counter-ions that a name gives are not always drawn. This is one part of the list. Single values are uncertain here, since repeats match poorly.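 ReNCell VM, a human fetal ventral-midbrain neural progenitor line, was differentiated without mitogens. Blinded raters scored images stained for doublecortin (early neurons) or tyrosine hydroxylase (dopaminergic neurons) against untreated wells (0 = no change). Scores were averaged across repeats and both raters, and compounds averaging 2 or more were selected as hits for retesting.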

For the experiment, the system named is ReNCell VM. As to the kind of experiment: dopaminergic neuron differentiation score (TH+ cell fraction vs untreated, manual image score) (score (0 to 3)); higher = more TH+ dopaminergic neuron differentiation. The conditions noted are these: library: Tocriscreen; 2 uM; 4 weeks; BDNF 10 ng/ml + GDNF 10 ng/ml.
With `CCc1nn(CCCN2CCN(c3cccc(Cl)c3)CC2)c(=O)n1CCOc1ccccc1` [Nefazodone hydrochloride], the “dopaminergic neuron differentiation score” value is inactive: 0.

With `C[C@H](NC(=O)/C(C#N)=C/c1ccc(O)c(O)c1)c1ccccc1` [Tyrphostin B44, (+) enantiomer], the “dopaminergic neuron differentiation score” value is active: 3.

In the case of `COc1ccc(Br)cc1S(=O)(=O)NC(=O)/C=C/c1ccccc1Cc1ccc2ccccc2c1`, the “dopaminergic neuron differentiation score” value was inactive: 0.

Turning to `Cc1sc(N)c(C(=O)c2cccc(C(F)(F)F)c2)c1C`, the “dopaminergic neuron differentiation score” value is inactive: 0.

Take `Cc1cc2nc3c(=O)[nH]c(=O)nc-3n(C)c2cc1C=O`: the “dopaminergic neuron differentiation score” value was inactive: 0.

Consider `N[C@H](C(=O)O)c1ccc(O)c(C(=O)O)c1` [(S)-3-Carboxy-4-hydroxyphenylglycine], for which the “dopaminergic neuron differentiation score” value was inactive: 0.

In the case of `N#C/C(=C\c1ccc(O)c(O)c1)C(=O)NCc1ccccc1`, the “dopaminergic neuron differentiation score” value was active: 3.
